# From the odorant receptor screen of Mainland et al. (2015)
# Where “and” joins values, the source holds several entries; their conditions need not be identical. Equal entries are not always repeated. The list shows a part of the results. Single wells; the ratio to wells without odorant was worked out here, and repeats agree poorly.
# Legend:
# Assay in all cases: odorant receptor activation (CRE luciferase / Renilla) (fold of no-odor wells); higher = more activation
# Details in all cases: 100 µM
# OR2B8 Indel clone 1076 = tested on: OR2B8 Indel clone 1076
# OR2C1 C149W clone 1282 = tested on: OR2C1 C149W clone 1282
# [1] = tested on: OR2C1 G16S/C149W/R229H clone 1408
# [2] = tested on: OR2C1 P58S/C149W clone 1409
# OR2C1 clone 1406 = tested on: OR2C1 clone 1406
# OR2C1 clone 1407 = tested on: OR2C1 clone 1407
# [3] = tested on: OR2C3 T20A/P68S/L289V clone 1454
# OR2D2 clone 1235 = tested on: OR2D2 clone 1235
# OR2D3 L66I clone 1381 = tested on: OR2D3 L66I clone 1381
# OR2F1 clone 1082 = tested on: OR2F1 clone 1082
# OR2F2 A98V clone 1087 = tested on: OR2F2 A98V clone 1087
# [4] = tested on: OR2G2 P24A/V120L/R236G clone 1349
# OR2G2 clone 1385 = tested on: OR2G2 clone 1385
# OR2G3 clone 1328 = tested on: OR2G3 clone 1328
# OR2G3 clone 1382 = tested on: OR2G3 clone 1382
# OR2G6 clone 1487 = tested on: OR2G6 clone 1487
# OR2H1 clone 1393 = tested on: OR2H1 clone 1393
# [5] = tested on: OR2H2 L30F/A48V clone 1061
# OR2H2 clone 1066 = tested on: OR2H2 clone 1066
# OR2J2 T111A clone 1073 = tested on: OR2J2 T111A clone 1073
SMILES,odorant receptor activation (OR2B8 Indel clone 1076),odorant receptor activation (OR2C1 C149W clone 1282),odorant receptor activation [1],odorant receptor activation [2],odorant receptor activation (OR2C1 clone 1406),odorant receptor activation (OR2C1 clone 1407),odorant receptor activation [3],odorant receptor activation (OR2D2 clone 1235),odorant receptor activation (OR2D3 L66I clone 1381),odorant receptor activation (OR2F1 clone 1082),odorant receptor activation (OR2F2 A98V clone 1087),odorant receptor activation [4],odorant receptor activation (OR2G2 clone 1385),odorant receptor activation (OR2G3 clone 1328),odorant receptor activation (OR2G3 clone 1382),odorant receptor activation (OR2G6 clone 1487),odorant receptor activation (OR2H1 clone 1393),odorant receptor activation [5],odorant receptor activation (OR2H2 clone 1066),odorant receptor activation (OR2J2 T111A clone 1073)
CCCCCCCCC=O [nonyl aldehyde],0.849,0.912,0.752,0.726,0.808,0.99,1.13,0.772,0.712,0.932,0.967,1.08,0.849,1.01,0.891,0.893,0.917,1.06,1.01,1.03
CCCCCCOC(=O)CCC [hexyl butyrate],0.67,1.12 and 0.964,0.937,0.814,0.845,0.812,0.976,0.568,0.681,0.999,0.825,1.13 and 1.19,0.987,1.45 and 0.915,0.868,1.43 and 0.896,0.962,0.569,0.843,1.11
COc1cc(C=O)ccc1O [vanillin],0.879,1.23,0.995,1.16,0.843,0.956,1.06,0.868,0.943,1.01,0.75,1.06,1.09,0.991,1.15,0.949,0.899,0.911,0.968,2.14
CC(=O)c1ccccc1 [acetophenone],1.6,1.85,1.08,1.09,1.07,1.64,,,0.652,1.97,0.508,0.764 and 0.613,1.08,1.05,0.768,1.12 and 0.715,1.09,0.668,1.21,3.56
C=C(C)C1CC=CCC1 (centres undefined) [r-limonene],1.11 and 1.46,1.14 and 1.11,1.24 and 1.13,0.992 and 1.28,0.949 and 0.848,1.2 and 0.974,0.938,1.25,1.31 and 0.836,1.14 and 1.92,0.798 and 1.24,0.844 and 0.675 and 0.686,1.34 and 0.807,,1.4 and 0.915,1.09 and 0.964 and 0.909,0.987 and 0.929,1.28 and 1.51,1.71 and 1.18,1.25 and 1.58
CCCCCCC=O [heptaldehyde],1.85 and 0.827,0.831 and 0.87 and 1.21,1.18 and 1,1.25 and 0.823,1.06 and 0.837,1.19 and 0.849,0.983,0.555,0.797 and 0.872,1.19 and 2.72,1.12 and 1.09,,1.12 and 0.977,0.432 and 0.761 and 0.751,0.969 and 0.909,,1.29 and 0.883,1.44 and 0.834,1.08 and 0.92,1.11 and 1.36
CC12C=CCC1C1CCC3=CC(=O)CCC3(C)C1CC2 (centres undefined) [androstadienone],1.87,1.04 and 1,1.11,0.924,0.95,0.835,,,0.791,4.46,5.62,1.23 and 1.09,0.952,0.967 and 0.761,0.837,1.07 and 1.2,0.986,1.63,3.24,2.01
CC(C)(C)c1ccc(CCC=O)cc1 [bourgeonal],0.918,0.646,0.292,0.299,0.274,0.255,,,0.232,0.949,0.754,0.657,0.127,0.724,0.183,1.05,0.131,0.833,1.16,0.779
O=C1CCCCC1 [Cyclohexanone],1.5,1.08,0.809,1.3,0.733,0.774,,,0.836,2.8,0.73,0.487 and 0.951,0.802,0.533,0.868,1.13 and 1.09,0.805,0.866,0.575,1.19
O=C1CCCCCCCCCCCCCCO1 [pentadecalactone],1.02,0.811,1.27,1.17,0.922,1.28,1.02,0.934,1.21,0.868,0.805,0.771,1.14,0.851,1.18,0.773,0.924,0.807,1.01,1.04
CCCCCC(=O)O [caproic acid],0.97,0.81,0.334,0.28,0.378,0.299,0.873,0.733,0.282,1.23,0.907,0.948,0.15,0.702,0.226,0.819,0.132,0.995,1.16,1.03
CC(C)(O)CCCC1=CCC(C=O)CC1 (centres undefined) [lyral],,,,,,,1.07,1.13,,,,,,,,,,,,
C=C(C)C1CCC2=CC(=O)CC(C)C2(C)C1 (centres undefined) [amyl laurate],,,,,,,2.07,1.06,,,,,,,,,,,,
CC1=NC(C)SC1C (centres undefined),1.74,2.29,1.31,1.28,1.1,1.4,,,0.905,1.09,0.922,0.929 and 0.843,1.21,3.33,0.918,1.29 and 1.17,1.05,0.721,1.02,1.06
CC12C=CCC1C1CCC3CC(=O)CCC3(C)C1CC2 (centres undefined) [androstenone],2.64,0.96,1.27,1.77,1.03,1.04,,,0.424,1.58,11.5,1.07,1.53,1.13,1.02,0.873,0.877,1.31,2.11,1.38
C=C(C)C1CC=C(C)C(=O)C1 (centres undefined) [r-carvone],0.738,1.82,1.45,1.26,1.05,2.11,0.973,0.851,1.28,0.968,0.698,0.813,1.23,0.852,1.59,0.982,1.01,0.893,1.04,1.01
"CC1CCC(C(C)C)C(O)C1 (single isomer, unassigned; (-)) [(-)-menthol]",4.27,1.54,1.28,1.38,0.691,0.894,1.45,1.17,0.403,2.5,18.4,0.865,1,0.729,0.832,2.5,0.476,2.53,4.91,2.09
O=C1CCCCCCCCCCCC(=O)OCCO1 [ethylene brassylate],1.12,1.46,1.6,1.38,1.25,1.66,1.7,1.33,2.12,1.4,1.69,1.31,1.32,1.3,1.5,1.38,1.68,1.81,1.2,1.15
COC(=O)c1ccccc1 [methyl benzoate],2.38,1.24,1.01,1.02,0.881,0.897,,,0.87,2.07,0.987,0.619 and 0.749,0.798,0.761,0.835,1.11 and 0.946,0.896,1.53,1.22,2
CC(=O)OC1CC2CCC1(C)C2(C)C (centres undefined) [isobornyl acetate],0.438,1.46 and 0.973,0.866,0.887,0.809,0.684,0.579,0.987,0.787,1,0.743,1.49 and 1.02,0.923,1.14 and 0.955,0.872,0.758 and 0.756,0.84,0.492,0.97,1.03
O=CCc1ccccc1 [phenyl acetaldehyde],0.933,1.85,1.63,1.3,1.48,1.84,1.08,2.92,1.6,1.24,0.776,1.28,1.88,1.37,1.94,1.44,1.42,1.18,1.59,1.35
CC1=CCC(C(C)(C)O)CC1 (centres undefined) [terpineol],0.92,1.09,1.17,1.05,0.891,1.3,1.05,1.09,1.15,1.05,0.82,1.01,1.22,1.09,1.24,0.822,1.07,1.16,0.986,1.29
CCCCCCCCCCC=O [undecanal],0.827,1.14,1.28,0.941,0.95,1.17,1.13,1.04,0.916,1.04,0.747,1.04,1.22,0.957,1.38,0.969,0.984,1.06,0.982,1.12
COc1ccccc1O [guaiacol],1.24,1.04 and 1.06,1.05,0.906,0.928,0.756,0.979,0.489,0.829,1.84,1.42,1.3 and 1.08,0.866,0.806 and 0.895,0.703,0.925 and 0.862,0.917,1.31,2.09,5.15
CCCCCCCOC(C)=O [heptyl acetate],1.03,0.806 and 0.81,1.19,1.17,1.3,0.919,0.993,0.5,0.996,1.83,1.12,2.08 and 0.968,1.14,0.833 and 0.962,0.92,0.962 and 1.05,1.17,0.723,0.902,1.12
CCCCCCCC=O [octyl aldehyde],1.02,1.4,0.731,0.783,0.904,0.843,0.82,0.948,0.734,0.881,1.03,1.01,0.908,1.13,0.905,0.814,0.868,1.08,1.3,1.17
CC1COCc2cc3c(cc21)C(C)(C)C(C)C3(C)C (centres undefined) [galaxolide],1.91,0.985 and 1.21,2.55,2.19,2.71,2.07,2.1 and 1.08,,4.44,2.03,3.73,4.47 and 1.69,4.67,1.44 and 1.35,4.02,1.66 and 3.93,4.66,1.92,2.19,1.91
CCCCCC(C)=O [2-heptanone],1.71,1.3,1.09,1.17,0.855,1.09,,,0.744,0.979,0.335,0.985 and 0.638,0.915,1.09,0.826,0.969 and 0.658,0.924,0.462,1.22,1
c1cnccn1 [pyrazine],0.895,0.934,1.2,0.941,0.99,1.08,1.27,0.904,1.13,0.977,0.731,0.828,1.02,0.844,1.3,0.788,0.957,1.11,1.35,1.04
COC(=O)c1ccccc1O [methyl salicylate],1.05,1.23,1.03,0.916,1.03,1.49,0.713,0.906,0.917,0.845,0.996,0.906,1.01,0.82,1.18,0.928,1.01,1.3,1.19,1.03

# Not a retest: 7 of the compounds above.
SMILES,odorant receptor activation (OR2B8 Indel clone 1076),odorant receptor activation (OR2C1 C149W clone 1282),odorant receptor activation [1],odorant receptor activation [2],odorant receptor activation (OR2C1 clone 1406),odorant receptor activation (OR2C1 clone 1407),odorant receptor activation [3],odorant receptor activation (OR2D2 clone 1235),odorant receptor activation (OR2D3 L66I clone 1381),odorant receptor activation (OR2F1 clone 1082),odorant receptor activation (OR2F2 A98V clone 1087),odorant receptor activation [4],odorant receptor activation (OR2G2 clone 1385),odorant receptor activation (OR2G3 clone 1328),odorant receptor activation (OR2G3 clone 1382),odorant receptor activation (OR2G6 clone 1487),odorant receptor activation (OR2H1 clone 1393),odorant receptor activation [5],odorant receptor activation (OR2H2 clone 1066),odorant receptor activation (OR2J2 T111A clone 1073)
COc1ccccc1O [guaiacol],1.24,1.04 and 1.06,1.05,0.906,0.928,0.756,0.979,0.489,0.829,1.84,1.42,1.3 and 1.08,0.866,0.806 and 0.895,0.703,0.925 and 0.862,0.917,1.31,2.09,5.15
CCCCCCCOC(C)=O [heptyl acetate],1.03,0.806 and 0.81,1.19,1.17,1.3,0.919,0.993,0.5,0.996,1.83,1.12,2.08 and 0.968,1.14,0.833 and 0.962,0.92,0.962 and 1.05,1.17,0.723,0.902,1.12
CCCCCCCC=O [octyl aldehyde],1.02,1.4,0.731,0.783,0.904,0.843,0.82,0.948,0.734,0.881,1.03,1.01,0.908,1.13,0.905,0.814,0.868,1.08,1.3,1.17
CC1COCc2cc3c(cc21)C(C)(C)C(C)C3(C)C (centres undefined) [galaxolide],1.91,0.985 and 1.21,2.55,2.19,2.71,2.07,2.1 and 1.08,,4.44,2.03,3.73,4.47 and 1.69,4.67,1.44 and 1.35,4.02,1.66 and 3.93,4.66,1.92,2.19,1.91
CCCCCC(C)=O [2-heptanone],1.71,1.3,1.09,1.17,0.855,1.09,,,0.744,0.979,0.335,0.985 and 0.638,0.915,1.09,0.826,0.969 and 0.658,0.924,0.462,1.22,1
c1cnccn1 [pyrazine],0.895,0.934,1.2,0.941,0.99,1.08,1.27,0.904,1.13,0.977,0.731,0.828,1.02,0.844,1.3,0.788,0.957,1.11,1.35,1.04
COC(=O)c1ccccc1O [methyl salicylate],1.05,1.23,1.03,0.916,1.03,1.49,0.713,0.906,0.917,0.845,0.996,0.906,1.01,0.82,1.18,0.928,1.01,1.3,1.19,1.03
